Source: PubChem BioAssay AID1508587 (Peter MacCallum Cancer Centre, 2020)
Here is a random part of about 1,600 reagents. 623 of them (39%) were called active. 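Calls are for each duplex; lactate ratios contain extreme outliers.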 Reagents against one gene are numbered here.

Purpose: 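Knockdowns that add to vemurafenib's cut in melanoma glycolysis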 (follow-up of hits)
Cells: human WM266.4 melanoma cells with a BRAF V600 mutation
Reagent: single siRNA against human genes, 25 nM
Timing: 96 h
Treatment: vemurafenib 300 nM (about IC25), given 48 h after transfection for 48 h
Measurement: 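Per-cell lactate from absorbance divided by DAPI nucleus counts, compared with and without vemurafenib, relative to non-targeting siRNA, mean of 2 replicates; nuclear counts also give cell number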
Direction: lactate per cell, drug vs no drug: higher = less drug-induced drop in lactate per cell; lactate per cell with vemurafenib: higher = more lactate per cell under drug; lactate per cell without drug: higher = more lactate per cell without drug; cell growth with vemurafenib and cell growth without drug: higher = more cell growth over 48 h
Hit rule: 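Enhancer call for any duplex whose drug versus no-drug per-cell lactate ratio is below 0.55 (2 SD beneath non-targeting average); genes confirmed when at least 2 of their 4 duplexes qualify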

no.	target	siRNA no.	lactate per cell, drug vs no drug	lactate per cell with vemurafenib	lactate per cell without drug	cell growth with vemurafenib	cell growth without drug	call
1	KCTD18	1	0.64	1.9	1.85	0.7	0.54	inactive
2	KCTD18	2	0.67	1.21	1.12	0.45	0.49	inactive
3	KCTD18	3	0.45	0.6	0.83	0.18	0.56	active
4	KCTD18	4	0.42	0.82	1.34	-0.01	0.09	active
5	ARIH1	1	0.55	1.08	1.15	0.67	0.7	inactive
6	ARIH1	2	0.44	1.11	1.48	0.47	0.17	active
7	ARIH1	3	0.6	1.04	1.01	0.96	1.35	inactive
8	ARIH1	4	0.46	1.4	1.79	0.59	0.31	active
9	TANGO2	1	0.81	1.67	1.41	0.72	0.69	inactive
10	TANGO2	2	0.14	0.15	0.85	0.08	0.11	active
11	TANGO2	3	0.5	0.92	1.25	0.01	0.2	active
12	TANGO2	4	0.74	1.98	1.84	0.41	0.42	inactive
13	RPL36AL	1	0.56	0.52	0.63	0.55	0.96	inactive
14	RPL36AL	2	0.76	1.1	1.01	-0.02	0.09	inactive
15	RPL36AL	3	1.31	3.93	2	-0.05	0.06	inactive
16	RPL36AL	4	0.4	0.94	1.6	0.04	0.06	active
17	SLC39A8	1	0.44	1.14	1.86	0.1	0.11	active
18	SLC39A8	2	0.66	1.08	1.19	0.86	1	inactive
19	SLC39A8	3	0.56	0.66	0.84	0.89	1.14	inactive
20	SLC39A8	4	0.76	2.25	2.16	0.14	0.16	inactive
21	VSTM2L	1	0.58	1.32	1.62	0.2	0.26	inactive
22	VSTM2L	2	0.77	1.58	1.36	0.33	0.38	inactive
23	VSTM2L	3	0.76	2.68	2.33	0.25	0.15	inactive
24	VSTM2L	4	0.6	0.78	0.85	0.01	0.04	inactive
25	PPHLN1	1	0.54	0.53	0.66	0.56	0.65	active
26	PPHLN1	2	0.8	0.94	0.76	0.56	1.14	inactive
27	PPHLN1	3	0.66	1.6	1.57	0.32	0.26	inactive
28	PPHLN1	4	0.52	1.2	1.51	0.58	0.34	active
29	CARD14	1	0.61	6	6.78	-0.12	-0.14	inactive
30	CARD14	2	0.58	0.92	1.09	0.35	0.44	inactive
31	CARD14	3	0.44	0.7	1.06	0.71	0.61	active
32	CARD14	4	0.98	3.66	2.57	0.13	0.1	inactive
33	CHI3L1	1	0.84	1.69	1.34	0.34	0.58	inactive
34	CHI3L1	2	0.46	1.28	1.8	0.45	0.31	active
35	CHI3L1	3	0.62	2	2.12	0.36	0.24	inactive
36	CHI3L1	4	0.32	0.34	0.7	0.25	0.59	active
37	MMP3	1	0.49	2.04	2.46	0.41	0.21	active
38	MMP3	2	0.48	1.34	1.62	0.83	0.57	active
39	MMP3	3	0.5	0.7	0.82	0.98	1.19	active
40	MMP3	4	0.32	0.56	1.06	0.28	0.18	active

A portion of the results above:
no.	target	siRNA no.	lactate per cell, drug vs no drug	lactate per cell with vemurafenib	lactate per cell without drug	cell growth with vemurafenib	cell growth without drug	call
37	MMP3	1	0.49	2.04	2.46	0.41	0.21	active
38	MMP3	2	0.48	1.34	1.62	0.83	0.57	active
39	MMP3	3	0.5	0.7	0.82	0.98	1.19	active

Further entries follow.
no.	target	siRNA no.	lactate per cell, drug vs no drug	lactate per cell with vemurafenib	lactate per cell without drug	cell growth with vemurafenib	cell growth without drug	call
41	MAP2K3	1	0.48	0.48	0.65	0.47	0.49	active
42	MAP2K3	2	0.44	0.94	1.38	0.39	0.28	active
43	MAP2K3	3	0.74	1.08	0.97	0.14	0.52	inactive
44	MAP2K3	4	0.6	1.19	1.27	0.53	0.64	inactive
45	ZNF585B	1	0.68	1.09	1.07	0.79	0.9	inactive
46	ZNF585B	2	0.45	0.84	1.27	0.01	0.04	active
47	ZNF585B	3	0.54	1.18	1.48	0.28	0.3	active
48	ZNF585B	4	0.76	1.21	1.08	0.09	0.15	inactive
49	HIVEP2	1	0.52	1.19	1.52	0.79	0.55	active
50	HIVEP2	2	0.44	0.94	1.43	0.37	0.15	active
51	HIVEP2	3	0.48	0.97	1.29	0.49	0.66	active
52	HIVEP2	4	0.6	0.9	0.98	1.06	1.05	inactive
53	RCOR1	1	0.38	0.57	1.01	0.87	0.73	active
54	RCOR1	2	0.12	0.28	1.48	-0.06	0.05	active
55	RCOR1	3	0.45	0.5	0.7	0.87	1.16	active
56	RCOR1	4	0.65	0.94	0.96	0.56	0.67	inactive
57	YBX1	1	0.44	1	1.32	0.4	0.32	active
58	YBX1	2	0.3	0.3	0.64	0.02	0.41	active
59	YBX1	3	0.48	0.72	0.89	0.63	0.53	active
60	YBX1	4	0.5	0.64	0.76	0.48	0.69	active
61	SLC38A10	1	0.48	1.26	1.78	0.2	0.12	active
62	SLC38A10	2	0.62	0.88	0.94	0.73	0.66	inactive
63	SLC38A10	3	0.68	1.23	1.23	0.12	0.14	inactive
64	SLC38A10	4	0.76	2.39	2.17	0.21	0.18	inactive
